# Laboratory results as given in PubChem BioAssay AID1347423 (Functional Genomics Laboratory (NCATS/FGL), 2020).
# Among all 52,000 sequences or so, about 210 (0.4%) were called active.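 The calls were made as follows: active = gene whose silencing raises cell survival under the drug, median off-target-corrected z-score across its silencing RNAs 2 or more; inactive = the rest.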 This is one part of the list.
# Assay: Resistance to Poly (ADP-Ribose) Polymerase inhibitor: Gene Identification via Genome-wide siRNA Screen
# Details: mouse BRCA2 R2336H ES cells, olaparib, CellTiter-Glo viability; hits give high values
# How it was run: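 Mouse BRCA2 R2336H ES cells were reverse-transfected with siRNA (20 nM final), treated at 48 h with 500 nM olaparib, and read by CellTiter-Glo after 72 h. Scores: MAD-based z per siRNA, median per gene, seed off-target correction.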
row,Sequence,z-score
1,CCAAACAGGCUUUUUUCCUTT against 4631426E05Rik,inactive: 0.245
2,CCUUAGGUACUCUAAGGAATT against D1Pas1,inactive: 0.23
3,GGUAAACUAGACACGAAGCTT against Fgf23,inactive: 0.495
4,GGAAAAUGGCAGAAAUGAATT against Vps26,inactive: -0.838
5,CGGAAUUUCCACAGCUGUATT against Mir16,inactive: -2.07
6,GCACUUCAAUCCAGUGUCUTT against Pdgfd,inactive: 3.74
7,GCCAACCUGUACGAAAAAGTT against AI449175,inactive: -0.922
8,CCUUUUACCAAAACACACATT against Zfp148,inactive: 0.583
9,GGUGUUUGCAUUGUACAGGTT against Zfp598,inactive: 0.8
10,GGCCGAAGUCCAAAAUCUCTT against Ranbp9,inactive: 0.591
11,CCUAGAUUCUGAAUUCGAATT against Pdzk8,inactive: -0.107
12,CGACCUCACAGUUGACUACTT against BC052066,inactive: -1.28
13,GGAAUACUGCAGUGGCAUCTT against Olfr850,inactive: 1.32
14,CGAAAAAGGGCUUUUAACUTT against Ndufs1,inactive: 1.04
15,GGGCUCGUAAAGAAAGAAGTT against Tsga14,inactive: -1.02
16,GGACUGUGACAUAUUCUUUTT against Zfp54,inactive: 1.02
17,GGAGGUGACUGUUCUUAGATT against Ccdc5,inactive: -0.81
18,CGCUAUUUACCAGAGUGGGTT against Statip1,inactive: -1.04
19,CCCUAAUGUGUAAAUGCAATT against D3Ucla1,inactive: -0.0426
20,CCGGCACUGCUUUUCUACUTT against Ltb4r2,inactive: 0.676
21,GGUGCAAAGGAUAACUCGGTT against Tfpt,inactive: 0.366
22,GGUCAUAUCAUUAGGUCUATT against Rod1,inactive: 0.09
23,GCUAGGUUGGAUAUAUAUGTT against 1110056A04Rik,inactive: -2.09
24,GGUGUUCUGGGAAAUUAAATT against Cdca7,inactive: -0.111
25,CCAUUAUGAAGAAGCUGUUTT against BC003324,inactive: -0.0139
26,GUUCCCUACAAGUUCUUCCTT against Phox2a,inactive: 1.18

# Laid out differently: results already given.
row	Sequence	z-score
6	GCACUUCAAUCCAGUGUCUTT against Pdgfd	inactive: 3.74
7	GCCAACCUGUACGAAAAAGTT against AI449175	inactive: -0.922
8	CCUUUUACCAAAACACACATT against Zfp148	inactive: 0.583
9	GGUGUUUGCAUUGUACAGGTT against Zfp598	inactive: 0.8
10	GGCCGAAGUCCAAAAUCUCTT against Ranbp9	inactive: 0.591
11	CCUAGAUUCUGAAUUCGAATT against Pdzk8	inactive: -0.107

# Next part:

row,Sequence,z-score
1,GGACUUGAAGUAAAGUAUATT against Egfl5,inactive: 0.792
2,GGAACAAAGUGUUUAAAACTT against Ptprj,inactive: 0.744
3,CCAUUUCUAUUAACCACAATT against AU020939,inactive: -0.712
4,GAAGAUGUACAGAUUUUCCTT against Tomm22,inactive: -0.305
5,GGUGCUGAUCUUGAACUACTT against Slc22a6,inactive: 1.81
6,GGCACUCCUCAAUAUAGAUTT against Elf1,inactive: 0.275
7,GGAGAGACGCGCUAUUAUATT against Bub1b,inactive: 0.786
8,AUUUCUGUAAGGCAAAUGUTT against Olfr970,inactive: 0.643
9,GGACUAAAUAGGUUUACCATT against Cart1,inactive: -0.668
10,GGAUGUCCUGGAAUAUGUGTT against Mrpl45,inactive: 0.656
11,CCACAUUUCUAGUUGUUUATT against Olfr1151,inactive: -0.538
12,GGAAAAAAUCAGGAGAUCUTT against Fbxo34,inactive: 1.85
13,GGUUAAGACCUUAAACAGATT against Prlpa,inactive: -0.587
14,GCUACAGGAUAAGUCCAAUTT against Kpnb1,inactive: -2.94
15,GGUUCAAACAGAGACUCCATT against 2210009G21Rik,inactive: -0.256
16,GACUGAAACACUCAAAGCCTT against 4930503B16Rik,inactive: 0.306
17,GGGAGAAAUCCAGAGGAGATT against Clecsf12,inactive: 0.322
18,GGAGGUUAUACCAACCUUUTT against Mcm4,inactive: -1.49
19,CCAUGUGCUGUGCACUACGTT against D4st1,inactive: 1.84
20,CAUCCCGCAUUCCAGUUACTT against Rgs3,inactive: -1.11
21,GGUGUUAAUGAGGACACUUTT against Slc25a22,inactive: 1.94
22,CCACCUACCAAAGCAGAAGTT against 1700001M19Rik,inactive: 0.616
23,GGCUGACAAUGUUAAAAGUTT against 8430423A01Rik,inactive: 0.372
24,CGAUUAUGACCUGAUCAUATT against Serpinb13,inactive: -0.55
25,CGGCACCUUCUACACAUCATT against Sirt2,inactive: -1.15
26,GCAAAUCAUACCUACCGGCTT against Cuzd1,inactive: 0.388

row,Sequence,z-score
1,GGAAGUGUUUGAUGUUCUUTT against Gtf2ird1,inactive: -0.0573
2,GAAAUCAUCCUGCCCAAAGTT against Vax1,inactive: 0.607
3,GAAUAGAAGGGAAGAAAGUTT against Crb3,inactive: -1.25
4,ACUGUUUAAUCACUGUGGUTT against Olfr891,inactive: 0.327
5,GAGAGAGACAAUCCUGAAGTT against Klra22,inactive: -0.691
6,GCUCGUCAUUGAAAUAGUGTT against Igtp,inactive: 0.878
7,GGAAGAAUCCUCCAUGGAGTT against Mrpl24,inactive: 1.25
8,GGAGCAAUGUUGUCACAACTT against Fbln1,inactive: -0.548
9,GGAAAGGUGCUUUUCAAAATT against Nedd9,inactive: 0.802
10,GGUCGUAUAUAAUUUGAUGTT against Nnt,inactive: 0.5
11,GGGACUUGGGACUUGUGGATT against Saa4,inactive: -0.393
12,GCCUGUUACUGACUAUAACTT against 4933407P14Rik,inactive: 0.65
13,GCAAUGUAACCCUGAAAAUTT against Cd48,inactive: -0.909
14,GCACACCUCUAGUGGACUUTT against Taf10,inactive: -2.69
15,CCUUGUAUGGAAUUUAAAGTT against Rbm6,inactive: 1.45
16,GGAAGUGUUAAAUCCUGCUTT against Rnaseh1,inactive: -0.212
17,GGAUUCUUCUUCCACUUUGTT against Fbxo46,inactive: -0.681
18,GGAAAGAAGAAGAGUCUAATT against Nucb2,inactive: -0.592
19,CCUAGCAAUGUAGUAUCUATT against Snap23,inactive: -0.62
20,CCAGGAGACCCAAUGUUGUTT against MGC91194,inactive: -0.743
21,GCUCUUAGAAUCAUCGUCCTT against Ctbp1,inactive: 0.656
22,GGUCAAGAGUGCAUUCAAATT against Olfr1445,inactive: 0.529
23,GGAUGGACCAAAGAGAUAUTT against Ldb1,inactive: -0.346
24,GCUCUAUUCCGGUGGAUGUTT against 1110003P22Rik,inactive: 0.526
25,GGUGAGAUCUCAAUGGAAATT against Mfap1,inactive: -2.24
26,GGACAUGGUUUAGGUUAGATT against Zxda,inactive: 0.332

row,Sequence,z-score
1,GGCCACAGGUGGAAACUAUTT against Tubb4,inactive: 0.675
2,GCUCUUUAUAGGGUUCGGATT against GnT-IX,inactive: 0.114
3,GCUGCCUCUUUCUUUGCUUTT against Tm4sf11,inactive: -0.233
4,GGGAACCUGUUUUCUUUCUTT against Nudt3,inactive: 0.0837
5,GGAUGUUAAAAUUGCCCUGTT against Olfr909,inactive: 0.276
6,GGUUGAGAACGAAAACCACTT against D5Ertd606e,inactive: -0.339
7,GGUUAUUUUUAGCUUCAGUTT against Lrpprc,inactive: -0.328
8,GGACUAGAGAAAGUGUGCATT against Egf,inactive: 0.977
9,CUACUCACAGUUUUAUUCATT against Tas2r137,inactive: 0.466
10,GGGCUUCCUUCAGAAGAGUTT against Slc38a3,inactive: -0.196
11,GGAACAUAUACUGGACAGATT against BC012278,inactive: -1.01
12,GGAGUGCGUCUUUGAGAAUTT against Fgf11,inactive: -0.949
13,GGUUCAUCUCAUCUCAAGUTT against 4930538D17Rik,inactive: 1.42
14,GGUGGACUGUGAAAUAAAATT against 1300017K07Rik,inactive: 0.529
15,GGCUAAAGGAAACUCACCUTT against 9030623N16Rik,inactive: -2.61
16,GGAUAGCUGCGUAUGCCUATT against 2400001E08Rik,inactive: 0.335
17,GCCAAGAAGAUGGAUCCGCTT against 6430526N21Rik,inactive: 0.767
18,GCCCUGGUUCCUAACCAAUTT against Nudt12,inactive: 0.0244
19,GGACAAAACCUCAGUUGAUTT against Bves,inactive: -0.614
20,GGUUGUCUGACACUGUACATT against 2610036N15Rik,inactive: -0.834
21,GGAAAUCUGAGUGUGCACUTT against Pcdhgb1,inactive: 0.439
22,GGUUCUAUGCUGAAGGUCATT against Lhfpl2,inactive: 0.135
23,GGAAAUCACCAUCCUUCGUTT against Map4k2,inactive: 0.322
24,CGGAACACCAAUAAGAGAATT against Hgd,inactive: -1.09
25,CCUAUGUAUCUCAUCGCUGTT against Sox11,inactive: -0.329
26,GGGCUUAACUAAAAGUAGUTT against 4921515J06Rik,inactive: 0.238
